Results published in patent EP0406111A1, “Substituted arylamines and heteroarylamines, process for their preparation and pharmaceutical composition containing them” (SOCIETE DE CONSEILS DE […] D'APPLICATIONS SCIENTIFIQUES …, priority 1989, dated 1991).

The compounds below were run on fixation de la (³H)BTCP dans le striatum de souris (assay: Inhibition of in vivo (3H)BTCP binding in mouse striatum (Example 40)).
Experimental: Exemple 40 : Etude de l'inhibition de la fixation "in vivo" de (³H)BTCP chez la souris.
Pour cette étude, on utilise des souris Swiss mâles pesant 20 à 25g. Les souris sont réparties par groupes et alimentées avec de la nourriture standard de laboratoire et de l'eau à volonté, en réalisant des cycles de lumière artificielle de 12h consécutives à partir de 7h du matin. Les expériences sont effectuées entre 10h et 18h. Les mesures de la fixation "in vivo" de la (³H)BTCP sont effectuées comme il a été décrit par Maurice et al, 1989, de la façon suivante.
On injecte aux souris par voie sous-cutanée le composé à tester dans 100µl de solution physiologique pour les composés n^o 4 et n^o 16 et dans 100µl d'un mélange 1:1 en volume de solution physiologique et de DMSO pour le composé n^o 26. 60 min après cette injection on leur injecte dans une veine de la queue (³H)BTCP à une dose de 5µCi dans 100µl d'un mélange de solution physiologique et d'éthanol à 5%. 30min après cette injection, on sacrifie les souris. Les striata de cerveaux sont rapidement disséqués et homogénéisés avec un ultra turrax (IKA Verk) réglage maximum pendant 20s dans 80 volumes d'un tampon Na₂HPO₄, HCl 50mM, pH=7,4 à 4°C. Deux aliquots de […] sont filtrées sous pression réduite sur des filtres GF/B (Whatman) prétraités par de la polyéthylène imine à 0,5% (Aldrich). On rince ensuite les filtres deux fois avec 5ml d'un tampon NaCl 50mM, tris-HCl 10mM, pH=7,4 à 4°C. La radioactivité fixée qui reste sur les filtres, et la radioactivité totale, obtenue à partir des deux aliquots de 200µl d'homogénats sont mesurées dans des flacons de 6ml contenant 3,5ml de ACS (Amersham) avec un spectrophotomètre à scintillation liquide Excel 1410 (LKB). La fixation non spécifique est définie comme la radioactivité présente dans chaque région après prétraitement des animaux avec de la BTCP (40mg/kg dans 100µl de solution saline), injectée par voie sous-cutanée, 60min avant l'injection de (³H)BTCP. Les résultats sont exprimés sous la forme des rapports radioactivité fixée / radioactivité libre (B/F) dans lesquels le taux de (³H)BTCP libre est estimé en soustrayant la radioactivité fixée de la radioactivité totale.

Row | SMILES | Nombre de Hill
1 | c1ccc2sc(C3(N4CCCCC4)CCCCC3)cc2c1 [BTCP, (benzo(b)thiophényl-2)-1 (pipéridino -1) cyclohexane, reference compound] | 1,12
2 | OC1CCN(C2(c3cc4ccccc4s3)CCCCC2)CC1 [composé 26, (benzo(b)thiophényl-2)-1( (ol-4-pipéridino)-1)-1 cyclohexane] | 0,74
3 | c1ccc2oc(C3(N4CCCCC4)CCCCC3)cc2c1 [composé n^o 4, (benzo(b)furannyl-2)-1 (pipéridino-1)-1 cyclohexane] | 1,13
4 | c1ccc2cc(C3(N4CCCCC4)CCCCC3)ccc2c1 [composé n^o 16, (naphtyl-2)-1 (pipéridi-no-1)-1 cyclohexane] | 0,84
